Percent effect of library compounds

Results are given as percent effect. How 0% and 100% were set is not recorded. Most values in the screen are low, and negative values occur. This is an unselected part of the compounds tested.

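Assay of Toxoplasma gondii numbers, read through their beta-galactosidase reporter with a colour substrate. Tested at 50 µM. The record gives no direction; the compounds picked for IC50 retests had high values, so higher reads as fewer parasites. About 18,000 compounds were tested under these conditions; 0.94% (about 170) showed 50% or more at least once.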

SMILES: CCC(NC(=O)c1nc(C)c[nH]1)c1cccc(C)n1 (stereo not drawn)
Percent Effect: -0.07972%

SMILES: CS(=O)(=O)c1ccc(NC(=O)c2ccccc2Br)cn1
Percent Effect: -12.93%

SMILES: CCS(=O)(=O)N1CC(CN)C1
Percent Effect: -0.541%

SMILES: CCCNC(=O)CCNC(=O)Nc1cc(C)cc(C)n1
Percent Effect: 12.25%

SMILES: COc1ccc(C(=O)CSc2nnc(N)[nH]2)cc1F
Percent Effect: -7.11%

SMILES: CN1C(=O)[C@H]2CN(Cc3ccc(Cl)cc3F)C[C@H]2C1=O
Percent Effect: 14.85%

SMILES: C(=C\c1ccco1)/CN1CCOCC1
Percent Effect: 8.736%

SMILES: COCCOc1ccc(CN)cn1
Percent Effect: 16.77%

SMILES: O=C(NCCc1ccccn1)NCc1ccco1
Percent Effect: 2.206%

SMILES: Cc1ccc(CNC2CCSC2)c(N2CCCC2)n1 (stereo not drawn)
Percent Effect: -4.895%

SMILES: O=C(CCN1CCC(CO)CC1)Nc1ccccc1F
Percent Effect: -0.6463%

SMILES: CCCN(CCC)S(=O)(=O)N1CCC2(CC1)OCCO2
Percent Effect: -3.547%

SMILES: c1nc(C2CNCCO2)no1 (stereo not drawn)
Percent Effect: -11.5%

SMILES: CNC(C)(C)CCO
Percent Effect: -8.856%

SMILES: Cc1cnc(CN2CCC(N)CC2)c(C)c1O
Percent Effect: 16.41%

SMILES: Cn1ncc(CNC(=O)Nc2ccccc2F)c1N
Percent Effect: -0.05413%

SMILES: COc1cccc(CNCc2ccccn2)c1
Percent Effect: 10.94%

SMILES: CC1(C)C(C(=O)N2CCC(N)C2)C1(C)C (stereo not drawn)
Percent Effect: -4.821%

SMILES: CN(CC(=O)N1CCCC1)S(=O)(=O)c1ccc(Cl)cc1
Percent Effect: 10.43%

SMILES: CCCS(=O)(=O)N1CC(N(C)Cc2cccnc2)C1
Percent Effect: 9.19%

SMILES: O=C1CC(c2ccccc2Cl)NN1 (stereo not drawn)
Percent Effect: -1.763%

SMILES: CCN(CC)CC(=O)NCc1ccco1
Percent Effect: 7.664%

SMILES: CC(C)OCCS(=O)(=O)N(C)Cc1ccco1
Percent Effect: -24.86%

SMILES: Nc1nnc(SCCc2ccccc2)[nH]1
Percent Effect: -0.2327%

SMILES: Cc1c(C(=O)NCc2cccnc2N(C)C)cnn1C
Percent Effect: -7.84%

SMILES: O=C(NC1=NCCS1)c1cc(Br)c[nH]1
Percent Effect: -20.72%

SMILES: CCCNC(=O)c1ccccc1NS(=O)(=O)CC
Percent Effect: -3.489%

SMILES: CC(C)(C)OC(=O)N1CCCN(CCO)CC1
Percent Effect: -1.028%

SMILES: O=C(Cn1ccnc1)Nc1ccccc1
Percent Effect: -1.635%

SMILES: CN(Cc1ccccc1)C1=NS(=O)(=O)c2ccccc21
Percent Effect: 0.8736%

SMILES: CC(=O)c1cccc2c1NCCC2
Percent Effect: -4.815%

SMILES: Cc1cc(N2CCC3(CC2)OCCO3)nc(C)n1
Percent Effect: 2.983%

SMILES: O=C(NCCCc1ccccc1)C1CNCCO1 (stereo not drawn)
Percent Effect: 7.933%

SMILES: NCCc1nc2cc(F)ccc2s1
Percent Effect: 1.463%

SMILES: Brc1ccc(N2CCNCC2)nc1
Percent Effect: 44.73%

SMILES: COc1ccc(Br)c(CN)c1
Percent Effect: 0.4019%

SMILES: CS(=O)(=O)CCC(=O)N1C[C@H](C2CC2)[C@@H](N)C1
Percent Effect: 0.5528%

SMILES: COCC(C)NC(=O)c1ccc2c(c1)CCC(=O)N2 (stereo not drawn)
Percent Effect: -1.268%

SMILES: COC(=O)c1cccc(CNCCC(=O)N(C)C)c1
Percent Effect: -1.835%

SMILES: CCCOc1cc(OC)ccc1C(N)=O
Percent Effect: -20.99%

SMILES: COCc1ccc(C(=O)N2CCC[C@@H]2COC)o1
Percent Effect: 17.95%

SMILES: Cc1cc(C(=O)N[C@@H]2CC[C@@H](N)C2)ccc1O
Percent Effect: 1.522%

SMILES: Cc1noc(C)c1S(=O)(=O)NCCCN1CCCC1=O
Percent Effect: -1.498%

SMILES: CC(=O)NCCCSc1ccoc1C
Percent Effect: -1.254%

For reference, 3 entries once more:

* NCCc1nc2cc(F)ccc2s1 : 1.463%
* O=C1CC(c2ccccc2Cl)NN1 (stereo not drawn) : -1.763%
* CC1(C)C(C(=O)N2CCC(N)C2)C1(C)C (stereo not drawn) : -4.821%

Measurements from “University of Dundee, Small-Polar-MMV Screening Library” (2021), ChEMBL document CHEMBL3988442.